These are yes or no findings as the source states them, for the method shown. In cells and extracts the contact can be indirect. Some results given as binding are weak or reduced against the parent protein; the word gives no strength. For part of these data: Sequences can lack the tags named with a protein.
Assays:
[1] = target: T1, Myc-tagged SUMO-resistant 4R mutant of Mps1 (human) (UniProt P33981); experiment: co-IP; HeLa cells transfected with Myc-Mps1-wt, Myc-Mps1-mut or pcDNA3 vector for 48 h, then nocodazole for 16 h; native lysates immunoprecipitated with antibody to Myc; blotted for Myc-tag and BubR1
T1 sequence: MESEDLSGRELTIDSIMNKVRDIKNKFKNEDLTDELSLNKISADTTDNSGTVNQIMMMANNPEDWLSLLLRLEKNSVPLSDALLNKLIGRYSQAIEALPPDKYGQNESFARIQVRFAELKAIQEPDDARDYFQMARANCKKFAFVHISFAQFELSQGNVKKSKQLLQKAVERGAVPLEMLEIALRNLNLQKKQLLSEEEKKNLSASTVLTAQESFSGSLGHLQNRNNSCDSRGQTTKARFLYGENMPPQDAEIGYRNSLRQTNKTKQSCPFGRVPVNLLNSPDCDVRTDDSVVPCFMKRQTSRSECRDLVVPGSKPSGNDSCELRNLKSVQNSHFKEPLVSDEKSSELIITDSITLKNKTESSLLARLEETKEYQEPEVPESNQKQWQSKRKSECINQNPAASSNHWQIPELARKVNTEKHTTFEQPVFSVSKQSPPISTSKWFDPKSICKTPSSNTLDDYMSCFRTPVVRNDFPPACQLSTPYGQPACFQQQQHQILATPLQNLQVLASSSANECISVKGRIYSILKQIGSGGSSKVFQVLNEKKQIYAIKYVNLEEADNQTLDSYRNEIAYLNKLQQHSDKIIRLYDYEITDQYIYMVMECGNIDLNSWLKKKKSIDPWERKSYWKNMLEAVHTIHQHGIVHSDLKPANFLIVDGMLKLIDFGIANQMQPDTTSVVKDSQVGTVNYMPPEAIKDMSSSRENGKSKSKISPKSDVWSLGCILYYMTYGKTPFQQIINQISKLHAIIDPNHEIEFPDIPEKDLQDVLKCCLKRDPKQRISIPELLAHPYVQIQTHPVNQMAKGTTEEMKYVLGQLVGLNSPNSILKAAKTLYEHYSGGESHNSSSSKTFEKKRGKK

The chains behind the UniProt entries cited, without tags or fusion partners.
UniProt O60566: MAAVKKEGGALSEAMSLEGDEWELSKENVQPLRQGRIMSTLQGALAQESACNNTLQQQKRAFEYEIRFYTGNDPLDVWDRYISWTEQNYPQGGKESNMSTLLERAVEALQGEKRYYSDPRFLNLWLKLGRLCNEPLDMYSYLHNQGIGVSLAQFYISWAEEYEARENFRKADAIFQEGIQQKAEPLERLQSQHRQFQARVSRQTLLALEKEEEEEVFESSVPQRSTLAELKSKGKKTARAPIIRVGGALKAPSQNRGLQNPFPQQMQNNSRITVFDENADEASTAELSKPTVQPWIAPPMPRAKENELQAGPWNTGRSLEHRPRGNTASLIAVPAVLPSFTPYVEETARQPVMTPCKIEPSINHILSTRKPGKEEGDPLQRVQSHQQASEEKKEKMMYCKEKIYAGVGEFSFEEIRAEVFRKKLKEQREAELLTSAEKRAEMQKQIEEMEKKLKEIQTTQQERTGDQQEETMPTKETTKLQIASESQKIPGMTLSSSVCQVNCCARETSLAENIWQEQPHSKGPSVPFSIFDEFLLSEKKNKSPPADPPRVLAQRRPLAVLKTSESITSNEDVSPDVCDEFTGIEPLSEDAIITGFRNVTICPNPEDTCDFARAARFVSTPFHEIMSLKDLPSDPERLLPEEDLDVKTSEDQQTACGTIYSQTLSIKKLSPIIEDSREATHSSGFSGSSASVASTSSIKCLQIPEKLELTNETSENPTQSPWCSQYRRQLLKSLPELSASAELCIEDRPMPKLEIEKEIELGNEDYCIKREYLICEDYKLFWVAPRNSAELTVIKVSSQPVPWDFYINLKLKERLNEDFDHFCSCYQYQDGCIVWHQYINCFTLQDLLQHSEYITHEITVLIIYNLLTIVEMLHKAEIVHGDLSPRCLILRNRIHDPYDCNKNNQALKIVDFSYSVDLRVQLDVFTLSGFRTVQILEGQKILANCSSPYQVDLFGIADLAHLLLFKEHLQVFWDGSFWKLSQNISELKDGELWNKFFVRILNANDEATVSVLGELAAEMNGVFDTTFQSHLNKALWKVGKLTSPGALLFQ

[2] = target: T2, Myc-tagged wild-type Mps1 (human) (UniProt P33981); experiment: as above
T2 sequence: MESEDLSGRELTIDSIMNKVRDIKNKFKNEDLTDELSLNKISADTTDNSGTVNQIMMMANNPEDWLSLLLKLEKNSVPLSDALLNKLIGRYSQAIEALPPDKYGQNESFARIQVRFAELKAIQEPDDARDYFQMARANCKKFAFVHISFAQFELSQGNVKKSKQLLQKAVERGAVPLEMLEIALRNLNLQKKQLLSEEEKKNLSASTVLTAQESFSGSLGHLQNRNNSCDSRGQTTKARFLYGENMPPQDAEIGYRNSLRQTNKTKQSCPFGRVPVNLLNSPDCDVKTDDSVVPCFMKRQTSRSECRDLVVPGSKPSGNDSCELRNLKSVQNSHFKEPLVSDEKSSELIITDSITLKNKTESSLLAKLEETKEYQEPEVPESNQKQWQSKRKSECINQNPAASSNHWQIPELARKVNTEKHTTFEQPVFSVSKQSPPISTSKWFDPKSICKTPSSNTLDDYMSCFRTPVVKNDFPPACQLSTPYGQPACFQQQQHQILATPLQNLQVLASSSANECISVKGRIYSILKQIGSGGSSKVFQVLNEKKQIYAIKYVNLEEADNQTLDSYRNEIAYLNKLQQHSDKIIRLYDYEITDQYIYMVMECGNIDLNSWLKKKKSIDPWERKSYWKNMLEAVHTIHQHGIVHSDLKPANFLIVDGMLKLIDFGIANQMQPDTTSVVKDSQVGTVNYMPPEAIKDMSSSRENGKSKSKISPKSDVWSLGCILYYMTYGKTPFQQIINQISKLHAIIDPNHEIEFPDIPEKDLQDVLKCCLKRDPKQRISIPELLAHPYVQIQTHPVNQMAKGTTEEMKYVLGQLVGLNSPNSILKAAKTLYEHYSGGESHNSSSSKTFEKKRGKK

[3] = target: BubR1 (human (endogenous in HeLa)) (UniProt O60566); experiment: co-IP; HeLa cells asynchronous or treated with nocodazole for 16 h; native lysates immunoprecipitated with antibody to BubR1 (or Mps1, or control IgG), protein G-agarose, 4°C overnight; blotted for Mps1

Q: For BubR1 (from UniProt O60566 1-1050), which binding [1] is on record?
A: binds

Q: What about the binding [2] of the same molecule?
A: binds

B1: Mps1 (mono-polar spindle 1) (protein, UniProt P33981-2 1-856)
chain: MESEDLSGRELTIDSIMNKVRDIKNKFKNEDLTDELSLNKISADTTDNSGTVNQIMMMANNPEDWLSLLLKLEKNSVPLSDALLNKLIGRYSQAIEALPPDKYGQNESFARIQVRFAELKAIQEPDDARDYFQMARANCKKFAFVHISFAQFELSQGNVKKSKQLLQKAVERGAVPLEMLEIALRNLNLQKKQLLSEEEKKNLSASTVLTAQESFSGSLGHLQNRNNSCDSRGQTTKARFLYGENMPPQDAEIGYRNSLRQTNKTKQSCPFGRVPVNLLNSPDCDVKTDDSVVPCFMKRQTSRSECRDLVVPGSKPSGNDSCELRNLKSVQNSHFKEPLVSDEKSSELIITDSITLKNKTESSLLAKLEETKEYQEPEVPESNQKQWQSKRKSECINQNPAASSNHWQIPELARKVNTEKHTTFEQPVFSVSKQSPPISTSKWFDPKSICKTPSSNTLDDYMSCFRTPVVKNDFPPACQLSTPYGQPACFQQQQHQILATPLQNLQVLASSSANECISVKGRIYSILKQIGSGGSSKVFQVLNEKKQIYAIKYVNLEEADNQTLDSYRNEIAYLNKLQQHSDKIIRLYDYEITDQYIYMVMECGNIDLNSWLKKKKSIDPWERKSYWKNMLEAVHTIHQHGIVHSDLKPANFLIVDGMLKLIDFGIANQMQPDTTSVVKDSQVGTVNYMPPEAIKDMSSSRENGKSKSKISPKSDVWSLGCILYYMTYGKTPFQQIINQISKLHAIIDPNHEIEFPDIPEKDLQDVLKCCLKRDPKQRISIPELLAHPYVQIQTHPVNQMAKGTTEEMKYVLGQLVGLNSPNSILKAAKTLYEHYSGGESHNSSSSKTFEKKRGKK
Q: How did the binding [3] turn out when B1 was run?
A: binds
